Data taken from US20100190768A1, “NOVEL FUSED PYROLE DERIVATIVE” (Dainippon Sumitomo Pharma Co., Ltd., priority 2005, published 2010).
For at least one compound, name, drawing or mass did not settle the structure.

Tested on: H4-III-E cells
Assay: TAT (tyrosine aminotransferase) assay
Format: cell-based
Details: 10 μM test compound together with 0.005 μM dexamethasone; inhibitory ratio against TAT activity increase by Dex
Method: H4-III-E cells, which had been continuously cultured in α-MEM medium A (supplemented with 10% inactivated FBS, 50 μM 2-mercapto-ethanol), were suspended in α-MEM medium A or α-MEM medium B (supplemented with 10% inactivated FBS, 50 μM 2-mercapto-ethanol, but without phenol red), and the cell suspension was seeded to a 96-well plate in an amount of 2×10^4 cells/100 μl/well, and the cells were cultured overnight. The supernatant in the medium was removed, and a test compound (100 μl, diluted with α-MEM medium A or α-MEM medium B) was added, and the cells were further cultured overnight. In order to measure the agonistic activity, a test compound was added alone, while in order to measure the antagonistic activity, a test compound was added simultaneously together with 0.005 μM dexamethasone and evaluated the extent of the inhibitory effect of said test compound against the TAT activity-inducing activity by dexamethasone. […]
From the mean absorbance in the wells to which a test compound was added, the mean absorbance in the wells to which a compound and a TAT reaction solution were not added was subtracted.
Agonistic activity (%)=100×[(absorbance of the drug-treated group)−(absorbance of the group without TAT reaction reagent)]/[(absorbance of Dex-treated group)−(absorbance of the group without TAT reaction reagent)]
On the other hand, the antagonistic activity was calculated as follows. […]

With O=C(N1CCOCC1)C(O)(c1cn(Cc2ccccc2)c2ccccc12)C(F)(F)F (stereo not shown) [Example 152, 2-(1-Benzyl-1H-indol-3-yl)-1,1,1-trifluoro-3-morpholin-4-yl-3-oxopropan-2-ol] the “Antagonistic activity of 10 μM test compound” value was “◯”.
